Results are given in words; binding and its absence hold for the method and conditions named. In cells and extracts the contact can be indirect. Some binding calls cover weakened binding; strength is not graded here.
Target: cytochrome c (human (endogenous in U2OS)) (UniProt P99999)
Assay: co-IP; cell lysate (50 mM HEPES pH 7.6, 150 mM NaCl, 5 mM EDTA, 0.1% NP-40) incubated with a cytochrome c antibody (1:100) at 4°C overnight, protein A-sepharose, western blot for Hsp27; cells with or without bufalin treatment

By UniProt entry, the sequences of proteins in these tests, tags left out.
UniProt P99999: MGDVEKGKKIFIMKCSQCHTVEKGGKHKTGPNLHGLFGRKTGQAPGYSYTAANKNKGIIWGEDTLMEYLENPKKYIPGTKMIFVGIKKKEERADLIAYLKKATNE
UniProt P04792: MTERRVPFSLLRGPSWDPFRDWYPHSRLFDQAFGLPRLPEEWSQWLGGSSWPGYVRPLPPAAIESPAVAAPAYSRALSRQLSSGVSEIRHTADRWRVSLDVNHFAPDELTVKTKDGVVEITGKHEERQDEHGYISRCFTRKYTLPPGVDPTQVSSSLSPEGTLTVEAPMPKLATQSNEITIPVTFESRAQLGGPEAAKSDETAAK

Substance	binding
heat shock protein 27 (from UniProt P04792 1-205)	binds
Hsp27 over-expressed from pCMV6-AC-Hsp27 (from UniProt P04792 1-205)	binds
